Results published in article PMC7140707.
No constants are given. Whether binding was seen depends on the method and setting. Binding seen in cells or lysates may run through a third protein. Some entries that bind do so weakly or less than the wild type. Where a sequence is shown, tags or fusion partners need not be part of it.

By UniProt entry, the sequences of proteins in these tests, tags left out.
UniProt Q03558: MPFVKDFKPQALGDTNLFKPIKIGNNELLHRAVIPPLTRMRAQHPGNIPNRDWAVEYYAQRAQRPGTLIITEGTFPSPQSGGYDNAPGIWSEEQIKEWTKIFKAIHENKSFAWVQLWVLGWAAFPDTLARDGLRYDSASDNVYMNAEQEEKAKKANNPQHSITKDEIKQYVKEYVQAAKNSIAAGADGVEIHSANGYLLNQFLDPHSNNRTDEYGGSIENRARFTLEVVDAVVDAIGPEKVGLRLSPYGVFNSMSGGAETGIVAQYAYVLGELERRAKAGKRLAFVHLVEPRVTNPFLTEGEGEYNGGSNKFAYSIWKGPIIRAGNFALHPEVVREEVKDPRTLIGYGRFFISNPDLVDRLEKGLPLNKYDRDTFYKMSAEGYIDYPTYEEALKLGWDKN

Legend:
Test in all cases: co-IP; TAP pull-down: extracts of yeast cells expressing a TAP-tagged protein and tagged Gis1 or Gis1 deletion protein incubated with IgG-Sepharose beads, 4 °C; Western blot with anti-TAP, anti-FLAG or anti-Myc
[1] = target: T1, TAP-tagged Pbp4 (S. cerevisiae) (UniProt Q07362)
T1 sequence: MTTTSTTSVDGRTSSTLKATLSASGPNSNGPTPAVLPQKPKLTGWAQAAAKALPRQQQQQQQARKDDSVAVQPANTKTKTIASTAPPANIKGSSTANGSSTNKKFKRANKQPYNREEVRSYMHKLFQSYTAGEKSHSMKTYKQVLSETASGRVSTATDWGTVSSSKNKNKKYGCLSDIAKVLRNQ

[2] = target: T2, TAP-tagged Mot3 (S. cerevisiae) (UniProt P54785)
T2 sequence: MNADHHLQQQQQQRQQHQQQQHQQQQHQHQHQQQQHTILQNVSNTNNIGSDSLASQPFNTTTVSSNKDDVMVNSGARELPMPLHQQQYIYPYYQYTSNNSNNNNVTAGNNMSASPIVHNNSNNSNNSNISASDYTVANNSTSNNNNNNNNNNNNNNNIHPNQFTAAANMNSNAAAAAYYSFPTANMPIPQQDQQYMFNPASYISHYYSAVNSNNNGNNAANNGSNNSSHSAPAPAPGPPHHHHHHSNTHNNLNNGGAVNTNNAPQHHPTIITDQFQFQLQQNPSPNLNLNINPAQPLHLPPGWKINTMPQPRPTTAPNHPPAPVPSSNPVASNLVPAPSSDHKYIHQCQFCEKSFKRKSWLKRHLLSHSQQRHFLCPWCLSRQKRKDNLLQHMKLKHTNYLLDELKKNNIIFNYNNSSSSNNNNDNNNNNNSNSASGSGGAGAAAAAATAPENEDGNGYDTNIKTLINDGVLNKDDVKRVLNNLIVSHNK

[3] = target: TAP-tagged Oye2 (S. cerevisiae) (UniProt Q03558)

Measured: binding

B1: FLAG-tagged Gis1 (protein, UniProt Q03833 1-894)
chain: MEIKPVEVIDGVPVFKPSMMEFANFQYFIDEITKFGIENGIVKVIPPKEWLELLEGSPPAESLKTIQLDSPIQQQAKRWDKHENGVFSIENEYDNKSYNLTQWKNLAESLDSRISQGDFNDKTLKENCRVDSQQDCYDLAQLQILESDFWKTIAFSKPFYAVDENSSIFPYDLTLWNLNNLPDSINSSNRRLLTGQSKCIFPWHLDEQNKCSINYLHFGAPKQWYSIPSANTDQFLKILSKEPSSNKENCPAFIRHQNIITSPDFLRKNNIKFNRVVQFQHEFIITFPYCMYSGFNYGYNFGESIEFILDQQAVVRKQPLKCGCGNKKEERKSGPFSNLSYDSNESEQRGSITDNDNDLFQKVRSFDELLNHSSQELQNLEDNKNPLFSNINMNRPQSSSLRSTTPNGVNQFLNMNQTTISRISSPLLSRMMDLSNIVEPTLDDPGSKFKRKVLTPQLPQMNIPSNSSNFGTPSLTNTNSLLSNITATSTNPSTTTNGSQNHNNVNANGINTSAAASINNNISSTNNSANNSSSNNNVSTVPSSMMHSSTLNGTSGLGGDNDDNMLALSLATLANSATASPRLTLPPLSSPMNPNGHTSYNGNMMNNNSGNGSNGSNSYSNGVTTAAATTTSAPHNLSIVSPNPTYSPNPLSLYLTNSKNPLNSGLAPLSPSTSNIPFLKRNNVVTLNISREASKSPISSFVNDYRSPLGVSNPLMYSSTINDYSNGTGIRQNSNNINPLDAGPSFSPLHKKPKILNGNDNSNLDSNNFDYSFTGNKQESNPSILNNNTNNNDNYRTSSMNNNGNNYQAHSSKFGENEVIMSDHGKIYICRECNRQFSSGHHLTRHKKSVHSGEKPHSCPRCGKRFKRRDHVLQHLNKKIPCTQEMENTKLAES
binds: all assays above
